Source: PubChem BioAssay AID743121 (NCATS, 2013)
This is an unselected part of about 26,000 reagents tested. Of all reagents, 167 (0.63%) were called active. 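Calls are per gene from RSA p-values that are not deposited; an individual active-marked siRNA can sensitise only weakly.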 The numbers tell different reagents against one gene apart.

Test: 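Genes whose silencing strengthens cell killing by camptothecin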 (primary screen)
Cell system: MDA-MB-231 cells, a human breast cancer line
Knock-down reagent: single siRNA against human genes, 20 nM siRNA (0.8 pmol per well)
Timing: 120 h (drug added 48 h after transfection, read 72 h later)
Challenge: camptothecin 20 nM (about EC30) for 72 h; vehicle 0.1% DMSO in parallel plates
Detection: 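Cell viability by ATP luminescence (CellTiter-Glo) as % of non-targeting siRNA wells, and the log2 ratio of viability without drug over viability with camptothecin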
Reading the numbers: log2 vehicle/camptothecin viability: higher = stronger sensitisation to camptothecin; viability with camptothecin and viability without drug: higher = more viable cells
Hit rule: 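Active genes have an RSA gene-level p-value below 0.001, computed from the ratios of their separate siRNAs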

no.	gene symbol	reagent	log2 vehicle/camptothecin viability	viability with camptothecin (% of control)	viability without drug (% of control)	Outcome
1	CCR4	1	-0.263	99.3	82.8	inactive
2	CCR4	2	-0.135	116	105	inactive
3	CCR4	3	0.043	84.3	86.9	inactive
4	CCR4	4	0.214	58.1	67.5	inactive
5	SMG1	1	0.411	59.2	78.7	inactive
6	SMG1	2	0.84	17.4	31.1	inactive
7	SMG1	3	-0.087	95.3	89.7	inactive
8	SMG1	4	0.326	55.5	69.5	inactive
9	FBXO33	1	-0.285	80.8	66.3	inactive
10	FBXO33	2	-0.396	97.5	74.1	inactive
11	FBXO33	3	-0.256	116	96.9	inactive
12	FBXO33	4	-0.233	106	90.4	inactive
13	PARP4	1	-0.361	47.6	37	inactive
14	PARP4	2	-0.455	119	86.5	inactive
15	PARP4	3	0.0201	116	117	inactive
16	PARP4	4	-0.275	71.7	59.2	inactive
17	BCAT1	1	0.228	75	87.9	inactive
18	BCAT1	2	-0.12	88.5	81.4	inactive
19	BCAT1	3	0.00138	65.5	65.6	inactive
20	BCAT1	4	0.195	27.7	31.7	inactive
21	LPL	1	0.119	30.5	33.2	inactive
22	LPL	2	-0.0782	69.3	65.7	inactive
23	LPL	3	-0.224	64	54.8	inactive
24	LPL	4	-0.0513	91.4	88.2	inactive
25	DCLK3	1	-0.154	59.7	53.6	inactive
26	DCLK3	2	0.41	64.2	85.3	inactive
27	DCLK3	3	-0.384	84.2	64.5	inactive
28	DCLK3	4	-0.507	56.3	39.6	inactive
29	ACAT1	1	0.106	96.4	104	inactive
30	ACAT1	2	0.398	71	93.6	inactive
31	ACAT1	3	0.501	26.4	37.3	inactive
32	ACAT1	4	-0.107	93.3	86.6	inactive
33	IL19	1	-0.671	59.4	37.3	inactive
34	IL19	2	-0.0403	38.8	37.8	inactive
35	IL19	3	-0.0625	63.6	60.9	inactive
36	IL19	4	0.486	43	60.2	inactive
37	JAG2	1	0.389	55.7	73	inactive
38	JAG2	2	-0.114	91.8	84.8	inactive
39	JAG2	3	-0.111	112	103	inactive
40	JAG2	4	-0.488	72.1	51.4	inactive
41	LAMA4	1	0.264	72.3	86.8	inactive
42	LAMA4	2	0.0454	102	105	inactive
43	LAMA4	3	-0.32	119	95.7	inactive
44	LAMA4	4	0.0147	101	103	inactive
45	MAFK	1	0.00424	103	104	inactive
46	MAFK	2	-0.67	107	67	inactive
47	MAFK	3	-0.102	86.2	80.3	inactive
48	MAFK	4	0.517	48.6	69.5	inactive
49	PSMA2	1	-0.29	20.9	17.1	inactive
50	PSMA2	2	-0.115	24	22.1	inactive
51	PSMA2	3	1.27	2.84	6.82	inactive
52	PSMA2	4	-0.625	29.3	19	inactive
53	ROCK2	1	-0.22	87.9	75.5	inactive
54	ROCK2	2	-0.47	75.5	54.5	inactive
55	ROCK2	3	-0.13	102	92.9	inactive
56	ROCK2	4	0.241	38	44.9	inactive
57	NEK9	1	-1.21	54.5	23.5	inactive
58	NEK9	2	-0.0806	49.3	46.7	inactive
59	NEK9	3	-0.192	98.1	85.8	inactive
60	FGL1	1	-0.00456	56.6	56.4	inactive
61	FGL1	2	-0.0253	96	94.3	inactive
62	FGL1	3	0.457	80.6	111	inactive
63	FGL1	4	-0.194	105	92.1	inactive
64	B4GALT1	1	-0.557	88.8	60.4	inactive
65	B4GALT1	2	-0.249	94.8	79.8	inactive
66	AVPR1A	1	-0.219	95.8	82.3	inactive
67	AVPR1A	2	-0.163	99.1	88.5	inactive
68	AVPR1A	3	-0.562	68.4	46.4	inactive
69	AVPR1A	4	0.0398	68.3	70.2	inactive
70	ELOC	1	0.558	33.8	49.8	inactive
71	ELOC	2	-0.293	64	52.2	inactive
72	ELOC	3	0.237	78.3	92.3	inactive
73	ELOC	4	0.286	96.1	117	inactive
74	LIPJ	1	-0.0978	93	86.9	inactive
75	LIPJ	2	0.0938	80.5	85.9	inactive
76	LIPJ	3	-0.171	116	103	inactive
77	LIPJ	4	-0.486	40.3	28.8	inactive
78	AMD1	1	-0.551	58	39.6	inactive
79	AMD1	2	-0.263	77.7	64.8	inactive
80	AMD1	3	-0.288	78.3	64.1	inactive
81	AMD1	4	-0.384	90	69	inactive
82	LAMA2	1	-0.46	108	78.7	inactive
83	LAMA2	2	-0.064	92.3	88.3	inactive
84	LAMA2	3	-0.452	50.1	36.6	inactive
85	LAMA2	4	-0.0114	73.4	72.8	inactive
86	CD47	1	-0.155	7.73	6.94	inactive
87	CD47	2	-0.163	118	105	inactive
88	CD47	3	-0.121	62	57	inactive
89	CD47	4	-0.422	112	83.5	inactive
